Assay results taken from the supplement of paper PMC9135407.
Several values for one entry are separate records, joined by “and”; a condition that tells them apart may be missing. Equal values may be shown once. Where a name gives a salt, the structure may show the parent alone. ± gives the standard deviation of the averaged measurements. Some of the results follow. Part of the spread comes from offsets between plates or batches.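 Culture-activated primary human stellate myofibroblasts, where regained lipid droplets signal inactivation. Value: share of Hoechst-counted cells above a per-plate Bodipy cutoff, in duplicate wells, with DMSO negative and nortriptyline positive controls on each plate. Hits: a control-normalized score above the plate's top-tenth-percentile nortriptyline wells, or one of a plate's three best wells. Final well concentrations are not given.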

System: primary human hepatic stellate cells (donor 1)
Assay: percent Bodipy-positive cells; higher = more lipid droplet accumulation
Conditions: 48 h
Experimental: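 Primary lipid accumulation screen in primary human hepatic stellate cell myofibroblasts (donor 1, passage 8) in 384-well plates. 100 nL of library compound was pin-transferred into 30 µL medium in duplicate, and cells were treated for 48 h. The 'Scaled' score combines distance from plate baseline, toxicity and reproducibility penalties, and is normalised to nortriptyline (positive) and DMSO (negative) controls on each plate. A hit is defined as scaled >0.85 or among the top 3 wells per plate.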

[1] = library stock concentration: 10 mM
[2] = library stock concentration: 3.33 mM
[3] = library stock concentration: 1 mM
[4] = library stock concentration: 400 uM
[5] = library stock concentration: 2 mM
[6] = library stock concentration: 80 uM

For O=C(O)C1CCCNC1 (stereo not drawn), the “percent Bodipy-positive cells” value was 8.23 ± 1.4% and the “percent Bodipy-positive cells” value [1] was 53.9 ± 2%.

With COc1cc([S+](C)[O-])ccc1-c1nc2cccnc2[nH]1 (stereo not drawn) [Sulmazole] the “percent Bodipy-positive cells” value was 7.09 ± 3.6%.

In the case of O=C(NC1CCN(CCCCC2(C(=O)NCC(F)(F)F)c3ccccc3-c3ccccc32)CC1)c1ccccc1-c1ccc(C(F)(F)F)cc1 [Lomitapide], the “percent Bodipy-positive cells” value [2] is reported as 94.71 ± 0.55%.

NC(N)=NC(N)=Nc1cccc(Cl)c1 [1-(m-Chlorophenyl)-biguanide hydrochloride] was tested, and the “percent Bodipy-positive cells” value [1] was 49.3 ± 9%.

With NC(N)=NC(N)=Nc1cccc(Cl)c1 [m-Chlorophenylbiguanide hydrochloride] the “percent Bodipy-positive cells” value [1] was 9.95 ± 3.3%.

C[C@H]1O[C@@H](O[C@H]2[C@@H](O)C[C@H](O[C@H]3[C@@H](O)C[C@H](O[C@H]4CC[C@@]5(C)[C@H](CC[C@@H]6[C@@H]5C[C@@H](O)[C@]5(C)[C@@H](C7=CC(=O)OC7)CC[C@]65O)C4)O[C@@H]3C)O[C@@H]2C)C[C@H](O)[C@@H]1O [Digoxin] was tested, and the “percent Bodipy-positive cells” value was 90.25 ± 0.78%, the “percent Bodipy-positive cells” value [2] was 86.25 ± 0.43% and the “percent Bodipy-positive cells” value [1] was 97% and 75.5%.

With C[C@H]1O[C@@H](O[C@H]2[C@@H](O)C[C@H](O[C@H]3[C@@H](O)C[C@H](O[C@H]4CC[C@@]5(C)[C@H](CC[C@@H]6[C@@H]5C[C@@H](O)[C@]5(C)[C@@H](C7=CC(=O)OC7)CC[C@]65O)C4)O[C@@H]3C)O[C@@H]2C)C[C@H](O)[C@@H]1O the “percent Bodipy-positive cells” value [1] was 97.8 ± 2.5%.

For CN1CCN(C2=Nc3cc(F)ccc3Cc3ccccc32)CC1 [Fluperlapine], the “percent Bodipy-positive cells” value [1] was 61 ± 16%.

In the case of COc1cc2ncnc(Nc3ccc(NC(=O)c4ccccc4)cc3)c2cc1OC [Aurora Kinase Inhibitor II], the “percent Bodipy-positive cells” value [2] is reported as 13.2 ± 2.9%.

With O=C(OCC(O)CO)c1ccccc1Nc1ccnc2cc(Cl)ccc12 (stereo not drawn) [Glafenine] the “percent Bodipy-positive cells” value [1] was 24.8 ± 0.41%.

For O=C(OCC(O)CO)c1ccccc1Nc1ccnc2cc(Cl)ccc12 (stereo not drawn) [Glafenine hydrochloride], the “percent Bodipy-positive cells” value was 24.1 ± 5%.

For COc1cc(N)c(Cl)cc1C(=O)OCCCN1CCCCC1, the “percent Bodipy-positive cells” value [1] was 17.1 ± 2.9%.

In the case of CC(C(=O)O)c1ccc(-c2ccccc2)c(F)c1 (stereo not drawn) [Flurbiprofen], the “percent Bodipy-positive cells” value is reported as 9.52 ± 2.6% and the “percent Bodipy-positive cells” value [2] is reported as 7.47 ± 3.6%.

In the case of CC(C(=O)O)c1ccc(-c2ccccc2)c(F)c1 (stereo not drawn) [(?)-Flurbiprofen], the “percent Bodipy-positive cells” value [3] is reported as 7.42 ± 1.3%.

With COc1cc2c(N3CCN(C(=O)Nc4ccc(OC(C)C)cc4)CC3)ncnc2cc1OCCCN1CCCCC1 the “percent Bodipy-positive cells” value [4] was 39.3 ± 17%, the “percent Bodipy-positive cells” value [5] was 48.4 ± 9.3% and the “percent Bodipy-positive cells” value [1] was 80.2 ± 6.3%.

For COc1cc2c(N3CCN(C(=O)Nc4ccc(OC(C)C)cc4)CC3)ncnc2cc1OCCCN1CCCCC1 [Tandutinib (MLN518)], the “percent Bodipy-positive cells” value [2] was 51.3 ± 4.4% and the “percent Bodipy-positive cells” value [1] was 87.5 ± 6%.

For NC(=O)c1cn(Cc2c(F)cccc2F)nn1 [Rufinamide], the “percent Bodipy-positive cells” value [2] was 14.3 ± 7.3%.

Cc1cc(O)c2c(c1)C(=O)c1cccc(O)c1C2=O [Chrysophanic Acid] was tested, and the “percent Bodipy-positive cells” value [2] was 7.07 ± 1.7% and the “percent Bodipy-positive cells” value [1] was 16.2 ± 4.7%.

In the case of CCCCCC(=O)OC[C@H](CO)OC(=O)CCCCC [1,2-Dihexanoyl-sn-glycerol], the “percent Bodipy-positive cells” value [3] is reported as 6.5 ± 2.1%.

With Cc1c(OCC(F)(F)F)ccnc1C[S@@+]([O-])c1nc2ccccc2[nH]1 [Dexlansoprazole] the “percent Bodipy-positive cells” value [2] was 9.53 ± 4.5% and the “percent Bodipy-positive cells” value [1] was 30.8 ± 2.2%.

With Cc1c(OCC(F)(F)F)ccnc1C[S@@+]([O-])c1nc2ccccc2[nH]1 the “percent Bodipy-positive cells” value [1] was 30.7 ± 5.9%.

For O=c1ccc2cc(O)c(O)cc2o1 [Esculetin], the “percent Bodipy-positive cells” value was 8.2 ± 2.2% and the “percent Bodipy-positive cells” value [1] was 18.3 ± 2.7%.

With Cc1ccc(C(=O)Nc2cccc(C(F)(F)F)c2)cc1Nc1cncc(C(N)=O)c1 the “percent Bodipy-positive cells” value [6] was 14.4 ± 8.3%, the “percent Bodipy-positive cells” value [4] was 7.48 ± 0.39% and the “percent Bodipy-positive cells” value [5] was 13.2 ± 3.8%. The “percent Bodipy-positive cells” value [1] was 23.8 ± 3.1%.

With COc1ccc(CCN(C)CCCN2CCc3cc(OC)c(OC)cc3CC2=O)cc1OC [Zatebradine hydrochloride] the “percent Bodipy-positive cells” value [1] was 6.71 ± 0.15%.

NCc1cccc2ccncc12 [8-Isoquinoline methanamine (hydrochloride)] was tested, and the “percent Bodipy-positive cells” value [3] was 8.38 ± 0.45%.

CN1CCC(=C2c3ccccc3CCc3cccnc32)CC1 [Azatadine dimaleate] was tested, and the “percent Bodipy-positive cells” value [2] was 17 ± 6.6% and the “percent Bodipy-positive cells” value [1] was 54.3 ± 5.7%.

CN1CCC(=C2c3ccccc3CCc3cccnc32)CC1 was tested, and the “percent Bodipy-positive cells” value [1] was 69.5 ± 0.73%.

For Nc1nc2ccc(OC(F)(F)F)cc2s1 [Riluzole], the “percent Bodipy-positive cells” value [2] was 16.7 ± 4.4%, the “percent Bodipy-positive cells” value (library stock concentration: 9.6 mM) was 9.99 ± 2.7% and the “percent Bodipy-positive cells” value [1] was 12.1% and 22.3%.

With Nc1nc2ccc(OC(F)(F)F)cc2s1 [Riluzole hydrochloride] the “percent Bodipy-positive cells” value was 43.1 ± 4.5% and the “percent Bodipy-positive cells” value [1] was 9.93 ± 1.3%.

COc1ccc2c(c1)c(CC(=O)O)c(C)n2C(=O)c1ccc(Cl)cc1 [Indomethacin] was tested, and the “percent Bodipy-positive cells” value was 29.2 ± 2%, the “percent Bodipy-positive cells” value [3] was 6.74 ± 1.1% and the “percent Bodipy-positive cells” value [2] was 16.4 ± 1.3%. For the same compound, the “percent Bodipy-positive cells” value (library stock concentration: 10.4 mM) was 8.56 ± 1.4% and the “percent Bodipy-positive cells” value (library stock concentration: 14 mM) was 18.5 ± 1.9%.

For CCCCC[C@H](O)/C=C/[C@H]1C(=O)C[C@H](O)[C@@H]1C/C=C\CCCC(=O)OCC(O)CO (stereo partly drawn) [Prostaglandin D2-1-glyceryl ester], the “percent Bodipy-positive cells” value [3] was 12.6 ± 1.2%.

For CCOC(=O)C1(CCCCCCOc2ccc(Cl)cc2)CO1 (stereo not drawn), the “percent Bodipy-positive cells” value [1] was 17.6 ± 3.8%.

In the case of CNC(=O)c1cc(Oc2ccc(NC(=O)Nc3cc(C(C)(C)C)nn3-c3ccc4ncccc4c3)c(F)c2)ccn1 [DCC-2036 (Rebastinib)], the “percent Bodipy-positive cells” value [2] is reported as 12.6 ± 1.8% and the “percent Bodipy-positive cells” value [1] is reported as 25.1 ± 5.4%.

With CNC(=O)c1cc(Oc2ccc(NC(=O)Nc3cc(C(C)(C)C)nn3-c3ccc4ncccc4c3)c(F)c2)ccn1 the “percent Bodipy-positive cells” value [6] was 12.1 ± 3.4%, the “percent Bodipy-positive cells” value [4] was 12.4 ± 2.7% and the “percent Bodipy-positive cells” value [5] was 12.4 ± 4.6%. For the same compound, the “percent Bodipy-positive cells” value [1] was 14.4 ± 0.95%.

For OC[C@H]1O[C@H](O[C@]2(CCl)O[C@H](CCl)[C@@H](O)[C@@H]2O)[C@H](O)[C@@H](O)[C@H]1Cl [Sucralose], the “percent Bodipy-positive cells” value [2] was 12.9 ± 3.8%, the “percent Bodipy-positive cells” value (library stock concentration: 5 mM) was 14.2 ± 5.3% and the “percent Bodipy-positive cells” value [1] was 43 ± 10%.

With COC(=O)[C@H]1[C@H]2C[C@@H]3c4[nH]c5cc(OC)ccc5c4CCN3C[C@H]2C[C@@H](OC(=O)c2cc(OC)c(OC)c(OC)c2)[C@@H]1OC [Reserpine] the “percent Bodipy-positive cells” value [1] was 82.9 ± 4.6%.
